# No constants are given. Whether binding was seen depends on the method and setting. Some results given as binding are weak or reduced against the parent protein; the word gives no strength.
# The chains behind the UniProt entries cited, without tags or fusion partners. Residues count along the entry.
# UniProt P32926, residues 50-615: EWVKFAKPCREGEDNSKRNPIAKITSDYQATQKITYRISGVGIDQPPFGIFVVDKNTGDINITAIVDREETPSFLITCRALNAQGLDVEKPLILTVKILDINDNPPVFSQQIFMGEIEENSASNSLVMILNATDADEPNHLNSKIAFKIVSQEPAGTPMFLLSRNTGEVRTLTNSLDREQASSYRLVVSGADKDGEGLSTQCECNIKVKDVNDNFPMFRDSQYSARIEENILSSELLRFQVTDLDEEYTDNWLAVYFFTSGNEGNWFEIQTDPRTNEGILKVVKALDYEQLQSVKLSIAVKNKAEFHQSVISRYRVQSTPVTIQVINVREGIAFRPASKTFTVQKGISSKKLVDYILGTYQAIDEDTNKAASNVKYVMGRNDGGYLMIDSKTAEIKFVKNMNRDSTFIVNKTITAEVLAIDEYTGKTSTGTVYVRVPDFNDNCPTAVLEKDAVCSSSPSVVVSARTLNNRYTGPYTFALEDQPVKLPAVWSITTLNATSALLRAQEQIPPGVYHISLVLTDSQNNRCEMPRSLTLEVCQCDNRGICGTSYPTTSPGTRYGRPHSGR
# Target: human DSG-3 (human) (UniProt P32926)
# Test: bridging ELISA, plate coated with hDSG-3, his-tagged hCD25, anti-His-HRP detection
substance,measurement,value
IL2DSGAB2 (from UniProt P0DOX7 1-214),binding,binds

# — patent publication US20240262905A1
